Assay results as given in PubChem BioAssay AID624373 (Broad Institute, 2012).
Inconclusive means that the source gave no clear call. Such entries were picked first, then a sample of the others. Active and inactive are the calls of the source.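 The calls were made as follows: active = fitted curve reaches -35% activity change at up to twice the top valid dose, with every replicate test run active; inconclusive = replicate test runs disagree on the call; inactive = all runs inactive, no -35% crossing or signal rises.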

Assay: inhibition of EBV LMP1-induced NF-kB luciferase – cell-based, HEK293, dry powder, dose response (AID 624373)
Details: HEK293 LMP1-TES2 NF-kB luciferase reporter, 16 h; at 26 µM (top of the series) unless noted

Activity change, negative = inhibition, inconclusive:
CSc1nc(-c2ccc(C)cc2)nc(C(Cl)Cl)n1 -29.9%
COc1ccc2nc(Nc3nc(C)c(CCC(C)C)c(=O)[nH]3)nc(C)c2c1 -39.5%
CCn1c2ccccc2c2cc(/C=N/n3cnnc3)ccc21 108%
C/C(=N\NC(=S)N1CCN(C2CCCCCC2)CC1)c1ccccn1 41.8%
C/C(=N\NC(=S)N1CC2CCC(CC2)C1)c1cnccn1 -108%
CC1=C(C(=O)OCc2ccc3c(c2)OCO3)C(c2ccc(F)cc2)NC(=O)N1 (stereo unspecified) -13.1%
COc1ccccc1NC(=S)N/N=C(\C)c1ccccn1 -80.2%
COc1ccc(C(=O)Nc2ccc3[nH]ccc3c2)cc1 -8.11%

4 entries already listed, arranged by count of non-hydrogen atoms, smallest number first.
Activity change, negative = inhibition, inconclusive:
CSc1nc(-c2ccc(C)cc2)nc(C(Cl)Cl)n1 -29.9%
CCn1c2ccccc2c2cc(/C=N/n3cnnc3)ccc21 108%
C/C(=N\NC(=S)N1CCN(C2CCCCCC2)CC1)c1ccccn1 41.8%
COc1ccc2nc(Nc3nc(C)c(CCC(C)C)c(=O)[nH]3)nc(C)c2c1 -39.5%

Next part.

Activity change, negative = inhibition, inactive:
C[C@@H]1CCCCO[C@H](CN(C)C(=O)c2ccccc2)[C@H](C)CN([C@@H](C)CO)C(=O)c2cc(NC(=O)Nc3ccc(F)cc3)ccc2O1 4.26%
C[C@@H]1CN([C@@H](C)CO)C(=O)c2cc(NC(=O)Nc3ccc(C(F)(F)F)cc3)ccc2O[C@@H](C)CCCCO[C@H]1CN(C)Cc1ccc(C(F)(F)F)cc1 52.3%
O=C(Nc1cc(C(F)(F)F)cc(C(F)(F)F)c1)Nc1cnn(-c2ccc([N+](=O)[O-])cc2)c1C(F)(F)F 10.5%
